Data published in PMC7901959.
No constants are given. Whether binding was seen depends on the method and setting. In cells and extracts the contact can be indirect. Some results given as binding are weak or reduced against the parent protein; the word gives no strength.

Sequences of proteins named here, by UniProt entry; tags and fusion partners are left off.
UniProt Q9C030: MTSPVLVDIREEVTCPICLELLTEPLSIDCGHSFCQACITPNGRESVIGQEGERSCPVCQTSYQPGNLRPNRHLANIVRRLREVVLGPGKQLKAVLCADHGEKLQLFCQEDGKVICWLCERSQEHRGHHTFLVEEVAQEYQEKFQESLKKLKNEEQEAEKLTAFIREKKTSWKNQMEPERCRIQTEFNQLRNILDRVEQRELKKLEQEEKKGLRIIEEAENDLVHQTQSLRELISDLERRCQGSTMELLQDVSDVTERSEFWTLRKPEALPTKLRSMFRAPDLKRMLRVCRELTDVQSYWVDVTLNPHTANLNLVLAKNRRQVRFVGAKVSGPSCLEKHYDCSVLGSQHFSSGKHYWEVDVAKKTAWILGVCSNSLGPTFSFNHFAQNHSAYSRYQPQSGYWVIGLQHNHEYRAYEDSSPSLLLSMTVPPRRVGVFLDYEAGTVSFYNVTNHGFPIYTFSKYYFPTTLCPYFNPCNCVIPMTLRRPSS

Target: TRIM6 in cell lysate (co-IP) (human) (UniProt Q9C030)
Experiment: co-IP; cell lysates incubated with anti-TRIM6, anti-TSC1, anti-TSC2 or control IgG for 1 h at 4°C, then protein A/G-agarose for 3 h at 4°C; washed three times in lysis buffer; western blot

- binding: binds
B1: TSC1 in cell lysate (co-IP) (protein, UniProt Q92574 1-1164)
chain: MAQQANVGELLAMLDSPMLGVRDDVTAVFKENLNSDRGPMLVNTLVDYYLETSSQPALHILTTLQEPHDKHLLDRINEYVGKAATRLSILSLLGHVIRLQPSWKHKLSQAPLLPSLLKCLKMDTDVVVLTTGVLVLITMLPMIPQSGKQHLLDFFDIFGRLSSWCLKKPGHVAEVYLVHLHASVYALFHRLYGMYPCNFVSFLRSHYSMKENLETFEEVVKPMMEHVRIHPELVTGSKDHELDPRRWKRLETHDVVIECAKISLDPTEASYEDGYSVSHQISARFPHRSADVTTSPYADTQNSYGCATSTPYSTSRLMLLNMPGQLPQTLSSPSTRLITEPPQATLWSPSMVCGMTTPPTSPGNVPPDLSHPYSKVFGTTAGGKGTPLGTPATSPPPAPLCHSDDYVHISLPQATVTPPRKEERMDSARPCLHRQHHLLNDRGSEEPPGSKGSVTLSDLPGFLGDLASEEDSIEKDKEEAAISRELSEITTAEAEPVVPRGGFDSPFYRDSLPGSQRKTHSAASSSQGASVNPEPLHSSLDKLGPDTPKQAFTPIDLPCGSADESPAGDRECQTSLETSIFTPSPCKIPPPTRVGFGSGQPPPYDHLFEVALPKTAHHFVIRKTEELLKKAKGNTEEDGVPSTSPMEVLDRLIQQGADAHSKELNKLPLPSKSVDWTHFGGSPPSDEIRTLRDQLLLLHNQLLYERFKRQQHALRNRRLLRKVIKAAALEEHNAAMKDQLKLQEKDIQMWKVSLQKEQARYNQLQEQRDTMVTKLHSQIRQLQHDREEFYNQSQELQTKLEDCRNMIAELRIELKKANNKVCHTELLLSQVSQKLSNSESVQQQMEFLNRQLLVLGEVNELYLEQLQNKHSDTTKEVEMMKAAYRKELEKNRSHVLQQTQRLDTSQKRILELESHLAKKDHLLLEQKKYLEDVKLQARGQLQAAESRYEAQKRITQVFELEILDLYGRLEKDGLLKKLEEEKAEAAEAAEERLDCCNDGCSDSMVGHNEEASGHNGETKTPRPSSARGSSGSRGGGGSSSSSSELSTPEKPPHQRAGPFSSRWETTMGEASASIPTTVGSLPSSKSFLGMKARELFRNKSESQCDEDGMTSSLSESLKTELGKDLGVEAKIPLNLDGPHPSPPTPDSVGQLHIMDYNETHHEHS
